Measurements as given in publication PMC5454954, “BDNF Binds Its Pro-Peptide with High Affinity and the Common Val66Met Polymorphism Attenuates the Interaction” (International Journal of Molecular Sciences, 2017).
Results are given in words; binding and its absence hold for the method and conditions named.

Amino acid sequences for entries named in this document (tags omitted). Residues count along the entry.
UniProt P02769, residues 25-607: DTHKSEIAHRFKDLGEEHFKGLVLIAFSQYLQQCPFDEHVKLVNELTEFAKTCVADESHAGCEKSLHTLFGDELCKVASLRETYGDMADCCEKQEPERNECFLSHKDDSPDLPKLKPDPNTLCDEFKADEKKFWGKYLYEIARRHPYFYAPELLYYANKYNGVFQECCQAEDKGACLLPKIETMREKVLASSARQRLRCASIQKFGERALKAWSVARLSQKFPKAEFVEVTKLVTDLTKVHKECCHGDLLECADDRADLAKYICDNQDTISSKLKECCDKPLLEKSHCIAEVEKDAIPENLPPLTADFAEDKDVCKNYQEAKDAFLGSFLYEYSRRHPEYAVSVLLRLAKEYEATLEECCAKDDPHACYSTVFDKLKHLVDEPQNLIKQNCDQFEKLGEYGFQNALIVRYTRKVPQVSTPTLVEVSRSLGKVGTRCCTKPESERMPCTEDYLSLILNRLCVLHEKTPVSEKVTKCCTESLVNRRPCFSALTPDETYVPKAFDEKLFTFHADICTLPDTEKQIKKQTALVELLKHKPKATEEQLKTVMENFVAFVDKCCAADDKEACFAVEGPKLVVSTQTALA
UniProt P05019, residues 49-118: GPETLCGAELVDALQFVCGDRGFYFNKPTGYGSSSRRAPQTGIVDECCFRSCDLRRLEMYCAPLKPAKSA

Target: T1, recombinant wild-type BDNF pro-peptide (Val at position 66) (human) (UniProt P23560)
T1 sequence: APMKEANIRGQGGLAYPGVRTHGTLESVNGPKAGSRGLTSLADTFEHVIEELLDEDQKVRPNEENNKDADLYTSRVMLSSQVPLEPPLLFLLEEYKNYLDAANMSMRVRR
Experiment: SPR; BIAcore 2000; BDNF pro-peptide (Val or Met) amine-coupled to a CM5 chip at about 2000 RU; neurotrophins and other proteins flowed over; 20 °C, 20 µL/min; HBS-EP (0.01 M HEPES pH 7.4, 0.15 M NaCl, 3 mM EDTA, 0.005% Surfactant P20); both purified

Row | Substance | binding
1 | bovine serum albumin (BSA) (from UniProt P02769 25-607) | no binding
2 | recombinant human insulin-like growth factor I (IGF-I) (from UniProt P05019 49-118) (ligand) | no binding
